PubChem BioAssay AID1224830, NIAID, 2016
The deposit covers about 18,000 reagents; this is a random part of them. About 2,900 of them (16%) were called active. 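Calls are made per well; low scores hint the gene aids the LPS response, high scores that it dampens it.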 A number with no mark means an inactive call. Reagents against one gene are numbered here. Repeated entries: four replicate wells of each siRNA pool. Reagent sequences are not shown.

Test: 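Regulators of TLR4 signalling towards TNF-alpha in macrophage-like cells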 (primary screen)
System: human THP-1 monocytic leukaemia cells, TNF dual-luciferase reporter clone, PMA-differentiated to macrophage-like cells
Reagent: siRNA pool against human genes, 50 nM
Duration: LPS for 4 h, given about 3 days after siRNA transfection
Conditions: bacterial LPS (TLR4 ligand), 10 ng/ml
Detection: 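Ratio of firefly to renilla light, scaled to the plate median and expressed as a robust z-score per replicate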
Reading the numbers: TNF reporter robust z-score: higher = stronger TNF reporter response to LPS
Active means: 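a well is active when its z-score exceeds 2.8 or falls below -1.5; control wells carry no call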

gene knocked down	pool no.	TNF reporter robust z-score
VPS72 (vacuolar protein sorting 72 homolog)	1	-0.68
VPS72 (vacuolar protein sorting 72 homolog)	1	0.42
VPS72 (vacuolar protein sorting 72 homolog)	1	0.15
VPS72 (vacuolar protein sorting 72 homolog)	1	0.55
SLC35E4	1	-0.16
SLC35E4	1	-0.38
SLC35E4	1	0.5
SLC35E4	1	1
ADK (adenosine kinase)	1	2.12
ADK (adenosine kinase)	1	3.73 (active)
ADK (adenosine kinase)	1	1.09
ADK (adenosine kinase)	1	2.43
FSIP2 (fibrous sheath interacting protein 2)	1	0.23
FSIP2 (fibrous sheath interacting protein 2)	1	2.43
FSIP2 (fibrous sheath interacting protein 2)	1	2.71
FSIP2 (fibrous sheath interacting protein 2)	1	2.66
FSIP2 (fibrous sheath interacting protein 2)	2	-2.05 (active)
FSIP2 (fibrous sheath interacting protein 2)	2	-1.88 (active)
FSIP2 (fibrous sheath interacting protein 2)	2	-1.93 (active)
FSIP2 (fibrous sheath interacting protein 2)	2	-1.19
NEDD4L (NEDD4 like E3 ubiquitin protein ligase)	1	-1.28
NEDD4L (NEDD4 like E3 ubiquitin protein ligase)	1	0.37
NEDD4L (NEDD4 like E3 ubiquitin protein ligase)	1	0.32
NEDD4L (NEDD4 like E3 ubiquitin protein ligase)	1	0.77
KCNK9 (potassium two pore domain channel subfamily K member 9)	1	0.34
KCNK9 (potassium two pore domain channel subfamily K member 9)	1	0.71
KCNK9 (potassium two pore domain channel subfamily K member 9)	1	-0.09
KCNK9 (potassium two pore domain channel subfamily K member 9)	1	-0.88
NAPRT (nicotinate phosphoribosyltransferase)	1	1.8
NAPRT (nicotinate phosphoribosyltransferase)	1	-0.12
NAPRT (nicotinate phosphoribosyltransferase)	1	2.43
NAPRT (nicotinate phosphoribosyltransferase)	1	2.57
EGFLAM (EGF like, fibronectin type III and laminin G domains)	1	-1.19
EGFLAM (EGF like, fibronectin type III and laminin G domains)	1	-0.95
EGFLAM (EGF like, fibronectin type III and laminin G domains)	1	-1.08
EGFLAM (EGF like, fibronectin type III and laminin G domains)	1	-0.94
DNAAF2 (dynein axonemal assembly factor 2)	1	-0.1
DNAAF2 (dynein axonemal assembly factor 2)	1	0.17
DNAAF2 (dynein axonemal assembly factor 2)	1	-0.19
DNAAF2 (dynein axonemal assembly factor 2)	1	-0.37
FLI1 (Fli-1 proto-oncogene, ETS transcription factor)	1	-0.49
FLI1 (Fli-1 proto-oncogene, ETS transcription factor)	1	-0.07
FLI1 (Fli-1 proto-oncogene, ETS transcription factor)	1	-0.57
FLI1 (Fli-1 proto-oncogene, ETS transcription factor)	1	-0.26
IL18R1 (interleukin 18 receptor 1)	1	-0.07
IL18R1 (interleukin 18 receptor 1)	1	0.04
IL18R1 (interleukin 18 receptor 1)	1	0.29
IL18R1 (interleukin 18 receptor 1)	1	2.62
GUF1 (GTP binding elongation factor GUF1)	1	1.25
GUF1 (GTP binding elongation factor GUF1)	1	1.2
GUF1 (GTP binding elongation factor GUF1)	1	1.21
GUF1 (GTP binding elongation factor GUF1)	1	-0.32
BRPF3 (bromodomain and PHD finger containing 3)	1	0.87
BRPF3 (bromodomain and PHD finger containing 3)	1	1.72
BRPF3 (bromodomain and PHD finger containing 3)	1	3.36 (active)
BRPF3 (bromodomain and PHD finger containing 3)	1	1.15
MMRN2 (multimerin 2)	1	-0.36
MMRN2 (multimerin 2)	1	-0.21
MMRN2 (multimerin 2)	1	-0.25
MMRN2 (multimerin 2)	1	0.09
PLD1 (phospholipase D1)	1	-1.02
PLD1 (phospholipase D1)	1	1.42
PLD1 (phospholipase D1)	1	-1.05
PLD1 (phospholipase D1)	1	0.4
CFHR2 (complement factor H related 2)	1	-1.28
CFHR2 (complement factor H related 2)	1	-0.87
CFHR2 (complement factor H related 2)	1	-0.58
CFHR2 (complement factor H related 2)	1	-0.48
GPX7 (glutathione peroxidase 7)	1	-0.42
GPX7 (glutathione peroxidase 7)	1	-0.61
GPX7 (glutathione peroxidase 7)	1	-1.04
GPX7 (glutathione peroxidase 7)	1	0.38
BAGE5 (BAGE family member 5)	1	-0.5
BAGE5 (BAGE family member 5)	1	0.85
BAGE5 (BAGE family member 5)	1	0.4
BAGE5 (BAGE family member 5)	1	0.45
KCNAB3	1	0.76
KCNAB3	1	0.59
KCNAB3	1	0.23
KCNAB3	1	1.21
GCHFR (GTP cyclohydrolase I feedback regulator)	1	1.02
GCHFR (GTP cyclohydrolase I feedback regulator)	1	0.09
GCHFR (GTP cyclohydrolase I feedback regulator)	1	0.39
GCHFR (GTP cyclohydrolase I feedback regulator)	1	0.4
COPRS (coordinator of PRMT5 and differentiation stimulator)	1	1.14
COPRS (coordinator of PRMT5 and differentiation stimulator)	1	1.49
COPRS (coordinator of PRMT5 and differentiation stimulator)	1	-0.58
COPRS (coordinator of PRMT5 and differentiation stimulator)	1	1.63
LUZP2 (leucine zipper protein 2)	1	0.33
LUZP2 (leucine zipper protein 2)	1	0.57
LUZP2 (leucine zipper protein 2)	1	0.05
LUZP2 (leucine zipper protein 2)	1	0.65
ARHGAP27 (Rho GTPase activating protein 27)	1	-0.46
ARHGAP27 (Rho GTPase activating protein 27)	1	0.04
ARHGAP27 (Rho GTPase activating protein 27)	1	-0.17
ARHGAP27 (Rho GTPase activating protein 27)	1	0.76
ARHGAP27 (Rho GTPase activating protein 27)	2	-0.66
ARHGAP27 (Rho GTPase activating protein 27)	2	0.13
ARHGAP27 (Rho GTPase activating protein 27)	2	-1.03
ARHGAP27 (Rho GTPase activating protein 27)	2	-0.23
INTS2 (integrator complex subunit 2)	1	1.28
INTS2 (integrator complex subunit 2)	1	3.54 (active)
INTS2 (integrator complex subunit 2)	1	1.83
INTS2 (integrator complex subunit 2)	1	1.6
AMY2B (amylase alpha 2B)	1	-0.37
AMY2B (amylase alpha 2B)	1	-0.14
AMY2B (amylase alpha 2B)	1	-0.09
AMY2B (amylase alpha 2B)	1	0.14
KARS1 (lysyl-tRNA synthetase 1)	1	-0.79
KARS1 (lysyl-tRNA synthetase 1)	1	-0.78
KARS1 (lysyl-tRNA synthetase 1)	1	-0.85
KARS1 (lysyl-tRNA synthetase 1)	1	-0.6
NAV3 (neuron navigator 3)	1	1
NAV3 (neuron navigator 3)	1	1.04
NAV3 (neuron navigator 3)	1	0.41
NAV3 (neuron navigator 3)	1	1.11
PTTG1	1	0.26
PTTG1	1	0.42
PTTG1	1	0.02
PTTG1	1	1.37
CALCB (calcitonin related polypeptide beta)	1	1.28
CALCB (calcitonin related polypeptide beta)	1	0.56
CALCB (calcitonin related polypeptide beta)	1	0.18
CALCB (calcitonin related polypeptide beta)	1	0.63
LY9 (lymphocyte antigen 9)	1	3.5 (active)
LY9 (lymphocyte antigen 9)	1	2.51
LY9 (lymphocyte antigen 9)	1	-0.18
LY9 (lymphocyte antigen 9)	1	0.33
DHX58 (DExH-box helicase 58)	1	0.18
DHX58 (DExH-box helicase 58)	1	-0.03
DHX58 (DExH-box helicase 58)	1	-0.01
DHX58 (DExH-box helicase 58)	1	0.03
MERTK (MER proto-oncogene, tyrosine kinase)	1	1.21
MERTK (MER proto-oncogene, tyrosine kinase)	1	0.14
MERTK (MER proto-oncogene, tyrosine kinase)	1	-0.27
MERTK (MER proto-oncogene, tyrosine kinase)	1	0.5
SNCG (synuclein gamma)	1	1.74
SNCG (synuclein gamma)	1	1.49
SNCG (synuclein gamma)	1	3.2 (active)
SNCG (synuclein gamma)	1	1.3

Entries above whose gene name starts with L or l (8):
gene knocked down	pool no.	TNF reporter robust z-score
LUZP2 (leucine zipper protein 2)	1	0.33
LUZP2 (leucine zipper protein 2)	1	0.57
LUZP2 (leucine zipper protein 2)	1	0.05
LUZP2 (leucine zipper protein 2)	1	0.65
LY9 (lymphocyte antigen 9)	1	3.5 (active)
LY9 (lymphocyte antigen 9)	1	2.51
LY9 (lymphocyte antigen 9)	1	-0.18
LY9 (lymphocyte antigen 9)	1	0.33
